Data reported in the supplement of paper PMC12067093, “Discovery and optimisation of a covalent ligand for TRIM25 and its application to targeted protein ubiquitination” (Chemical Science, 2025).
The other results are listed elsewhere or left out.

Sequences of proteins named here, by UniProt entry; tags and fusion partners are left off. A change or cut given only in a name is not applied to a line headed by its entry.
UniProt Q9Y6W3: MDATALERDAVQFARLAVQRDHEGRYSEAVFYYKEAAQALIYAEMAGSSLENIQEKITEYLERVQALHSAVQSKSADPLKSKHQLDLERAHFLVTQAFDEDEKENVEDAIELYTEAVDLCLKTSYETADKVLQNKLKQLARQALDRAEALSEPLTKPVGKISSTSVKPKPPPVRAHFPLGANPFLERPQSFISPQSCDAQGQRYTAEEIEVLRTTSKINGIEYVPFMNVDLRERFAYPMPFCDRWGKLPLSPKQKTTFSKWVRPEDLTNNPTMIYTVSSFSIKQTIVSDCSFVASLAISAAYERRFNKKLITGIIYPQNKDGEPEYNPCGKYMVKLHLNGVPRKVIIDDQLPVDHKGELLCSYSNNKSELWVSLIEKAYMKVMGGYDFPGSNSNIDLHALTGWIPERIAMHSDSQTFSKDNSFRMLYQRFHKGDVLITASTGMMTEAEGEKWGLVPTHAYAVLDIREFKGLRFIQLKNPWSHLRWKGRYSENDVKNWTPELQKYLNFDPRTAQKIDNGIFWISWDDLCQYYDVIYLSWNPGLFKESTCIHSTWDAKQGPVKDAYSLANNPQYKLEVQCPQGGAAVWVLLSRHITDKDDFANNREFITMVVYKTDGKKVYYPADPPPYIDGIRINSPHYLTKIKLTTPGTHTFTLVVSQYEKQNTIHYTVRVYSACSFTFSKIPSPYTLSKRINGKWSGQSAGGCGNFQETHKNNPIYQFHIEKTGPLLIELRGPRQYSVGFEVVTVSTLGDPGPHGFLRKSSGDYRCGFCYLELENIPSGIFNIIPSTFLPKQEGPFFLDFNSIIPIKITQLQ
UniProt P49662: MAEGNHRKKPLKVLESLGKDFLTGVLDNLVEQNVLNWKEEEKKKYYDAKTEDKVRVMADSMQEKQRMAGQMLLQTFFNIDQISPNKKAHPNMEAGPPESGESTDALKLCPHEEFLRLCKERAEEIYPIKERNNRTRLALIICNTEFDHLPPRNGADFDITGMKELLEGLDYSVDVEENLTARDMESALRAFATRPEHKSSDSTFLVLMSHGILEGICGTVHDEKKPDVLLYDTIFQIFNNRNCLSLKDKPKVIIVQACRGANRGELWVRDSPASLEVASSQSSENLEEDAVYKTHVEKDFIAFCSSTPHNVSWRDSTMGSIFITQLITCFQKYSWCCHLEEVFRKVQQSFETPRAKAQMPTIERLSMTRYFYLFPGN
UniProt Q9HC52: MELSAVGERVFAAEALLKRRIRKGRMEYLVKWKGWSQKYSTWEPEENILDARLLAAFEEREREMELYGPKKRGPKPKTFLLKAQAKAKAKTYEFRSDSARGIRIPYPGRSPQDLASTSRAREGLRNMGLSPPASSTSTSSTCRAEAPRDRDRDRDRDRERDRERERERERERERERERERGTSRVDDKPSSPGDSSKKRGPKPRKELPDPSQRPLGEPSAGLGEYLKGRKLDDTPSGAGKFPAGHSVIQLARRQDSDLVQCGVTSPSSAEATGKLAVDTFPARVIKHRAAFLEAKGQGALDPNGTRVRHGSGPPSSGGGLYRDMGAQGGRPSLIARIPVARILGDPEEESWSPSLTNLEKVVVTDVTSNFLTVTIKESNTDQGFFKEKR
UniProt P49589: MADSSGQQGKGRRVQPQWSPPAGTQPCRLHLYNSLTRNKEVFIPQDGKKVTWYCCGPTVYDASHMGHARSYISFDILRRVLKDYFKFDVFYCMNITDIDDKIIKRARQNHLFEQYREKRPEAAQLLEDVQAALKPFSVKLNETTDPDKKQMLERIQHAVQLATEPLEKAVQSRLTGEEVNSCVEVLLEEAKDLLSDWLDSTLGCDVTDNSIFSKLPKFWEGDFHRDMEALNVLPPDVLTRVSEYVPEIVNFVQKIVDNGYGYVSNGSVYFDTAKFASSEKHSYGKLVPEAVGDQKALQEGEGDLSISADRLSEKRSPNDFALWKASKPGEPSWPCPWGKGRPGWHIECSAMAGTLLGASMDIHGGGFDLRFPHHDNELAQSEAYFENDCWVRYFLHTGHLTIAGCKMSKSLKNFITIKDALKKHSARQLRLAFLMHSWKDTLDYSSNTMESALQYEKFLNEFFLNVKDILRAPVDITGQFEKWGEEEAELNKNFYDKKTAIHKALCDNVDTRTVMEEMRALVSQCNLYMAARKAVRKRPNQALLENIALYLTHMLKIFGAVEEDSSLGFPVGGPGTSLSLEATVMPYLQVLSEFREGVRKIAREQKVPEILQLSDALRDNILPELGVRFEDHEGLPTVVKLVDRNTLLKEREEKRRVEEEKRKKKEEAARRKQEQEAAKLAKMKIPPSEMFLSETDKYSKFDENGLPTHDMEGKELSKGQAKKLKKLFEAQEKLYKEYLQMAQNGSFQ
UniProt Q14790: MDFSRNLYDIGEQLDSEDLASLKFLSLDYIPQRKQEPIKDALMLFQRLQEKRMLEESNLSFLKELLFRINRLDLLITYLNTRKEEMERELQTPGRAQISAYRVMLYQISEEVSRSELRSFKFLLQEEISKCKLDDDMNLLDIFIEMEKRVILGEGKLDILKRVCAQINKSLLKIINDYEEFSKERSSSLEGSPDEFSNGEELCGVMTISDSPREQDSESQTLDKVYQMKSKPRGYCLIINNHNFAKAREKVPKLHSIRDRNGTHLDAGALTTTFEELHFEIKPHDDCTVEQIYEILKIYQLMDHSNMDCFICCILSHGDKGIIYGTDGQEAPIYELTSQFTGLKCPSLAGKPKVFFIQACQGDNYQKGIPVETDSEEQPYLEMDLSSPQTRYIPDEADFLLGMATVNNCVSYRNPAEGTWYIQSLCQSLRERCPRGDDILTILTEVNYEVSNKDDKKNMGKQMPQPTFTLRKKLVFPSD
UniProt Q86X55: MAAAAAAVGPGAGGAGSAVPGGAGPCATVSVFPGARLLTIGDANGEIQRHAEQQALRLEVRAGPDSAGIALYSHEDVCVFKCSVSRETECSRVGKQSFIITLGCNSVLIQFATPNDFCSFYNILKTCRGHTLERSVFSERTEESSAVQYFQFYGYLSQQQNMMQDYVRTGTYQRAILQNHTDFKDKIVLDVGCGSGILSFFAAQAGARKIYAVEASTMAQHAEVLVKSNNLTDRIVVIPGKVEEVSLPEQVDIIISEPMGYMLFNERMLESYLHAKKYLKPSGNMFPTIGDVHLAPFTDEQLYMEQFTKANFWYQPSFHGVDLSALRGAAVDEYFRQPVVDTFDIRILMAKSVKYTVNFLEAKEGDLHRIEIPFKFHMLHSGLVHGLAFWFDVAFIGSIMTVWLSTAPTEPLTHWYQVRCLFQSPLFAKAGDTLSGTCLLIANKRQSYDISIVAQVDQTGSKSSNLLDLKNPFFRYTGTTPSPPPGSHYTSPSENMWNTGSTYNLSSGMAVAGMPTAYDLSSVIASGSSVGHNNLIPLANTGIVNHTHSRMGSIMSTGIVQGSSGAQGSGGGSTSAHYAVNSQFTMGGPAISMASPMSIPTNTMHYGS
UniProt P55210: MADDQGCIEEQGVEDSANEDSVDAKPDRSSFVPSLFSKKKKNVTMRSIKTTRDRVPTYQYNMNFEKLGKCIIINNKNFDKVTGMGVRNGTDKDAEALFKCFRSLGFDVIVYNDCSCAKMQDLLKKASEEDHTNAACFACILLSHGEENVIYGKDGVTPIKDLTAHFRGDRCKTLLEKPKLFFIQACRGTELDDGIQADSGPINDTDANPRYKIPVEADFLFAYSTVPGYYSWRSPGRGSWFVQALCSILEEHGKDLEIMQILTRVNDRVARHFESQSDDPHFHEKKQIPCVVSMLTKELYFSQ
UniProt Q13185: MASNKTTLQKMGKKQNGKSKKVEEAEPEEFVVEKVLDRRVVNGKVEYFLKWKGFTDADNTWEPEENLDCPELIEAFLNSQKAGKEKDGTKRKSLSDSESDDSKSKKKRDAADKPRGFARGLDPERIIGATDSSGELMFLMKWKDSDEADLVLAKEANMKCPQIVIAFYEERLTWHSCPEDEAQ
UniProt P47756, whole entry, looked up: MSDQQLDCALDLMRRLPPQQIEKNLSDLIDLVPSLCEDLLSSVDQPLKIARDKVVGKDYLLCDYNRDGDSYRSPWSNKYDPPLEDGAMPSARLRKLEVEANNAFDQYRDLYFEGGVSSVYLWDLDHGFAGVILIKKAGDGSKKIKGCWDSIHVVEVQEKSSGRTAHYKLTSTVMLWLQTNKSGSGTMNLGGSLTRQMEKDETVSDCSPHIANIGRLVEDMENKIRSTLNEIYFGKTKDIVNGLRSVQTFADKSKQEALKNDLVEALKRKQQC
UniProt O75828: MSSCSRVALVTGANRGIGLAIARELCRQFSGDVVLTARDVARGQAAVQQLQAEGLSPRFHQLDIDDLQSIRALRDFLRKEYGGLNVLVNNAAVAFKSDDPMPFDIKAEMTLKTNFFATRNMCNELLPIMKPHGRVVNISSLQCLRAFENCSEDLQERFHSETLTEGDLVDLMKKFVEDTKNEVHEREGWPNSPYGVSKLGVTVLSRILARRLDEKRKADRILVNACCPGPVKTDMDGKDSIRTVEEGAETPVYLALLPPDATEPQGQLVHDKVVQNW
UniProt Q14444, whole entry: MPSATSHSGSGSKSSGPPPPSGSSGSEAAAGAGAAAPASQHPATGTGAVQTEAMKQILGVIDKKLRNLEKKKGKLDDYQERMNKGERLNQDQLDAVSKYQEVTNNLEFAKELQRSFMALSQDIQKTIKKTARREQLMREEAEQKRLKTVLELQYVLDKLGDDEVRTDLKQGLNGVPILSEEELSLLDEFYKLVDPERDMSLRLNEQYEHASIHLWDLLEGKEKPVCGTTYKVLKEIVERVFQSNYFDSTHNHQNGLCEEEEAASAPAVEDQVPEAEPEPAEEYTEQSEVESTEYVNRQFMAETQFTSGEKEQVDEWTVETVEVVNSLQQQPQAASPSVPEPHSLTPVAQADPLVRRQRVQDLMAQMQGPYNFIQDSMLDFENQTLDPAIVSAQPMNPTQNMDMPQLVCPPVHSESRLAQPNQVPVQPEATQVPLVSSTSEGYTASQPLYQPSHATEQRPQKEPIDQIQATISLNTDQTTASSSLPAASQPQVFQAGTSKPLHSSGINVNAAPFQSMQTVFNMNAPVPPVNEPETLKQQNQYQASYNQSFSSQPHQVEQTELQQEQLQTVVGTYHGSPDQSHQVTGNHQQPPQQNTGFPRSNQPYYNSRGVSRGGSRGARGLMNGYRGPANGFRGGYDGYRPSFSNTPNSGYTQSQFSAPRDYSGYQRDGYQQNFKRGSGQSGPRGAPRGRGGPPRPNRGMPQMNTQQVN
UniProt P17655: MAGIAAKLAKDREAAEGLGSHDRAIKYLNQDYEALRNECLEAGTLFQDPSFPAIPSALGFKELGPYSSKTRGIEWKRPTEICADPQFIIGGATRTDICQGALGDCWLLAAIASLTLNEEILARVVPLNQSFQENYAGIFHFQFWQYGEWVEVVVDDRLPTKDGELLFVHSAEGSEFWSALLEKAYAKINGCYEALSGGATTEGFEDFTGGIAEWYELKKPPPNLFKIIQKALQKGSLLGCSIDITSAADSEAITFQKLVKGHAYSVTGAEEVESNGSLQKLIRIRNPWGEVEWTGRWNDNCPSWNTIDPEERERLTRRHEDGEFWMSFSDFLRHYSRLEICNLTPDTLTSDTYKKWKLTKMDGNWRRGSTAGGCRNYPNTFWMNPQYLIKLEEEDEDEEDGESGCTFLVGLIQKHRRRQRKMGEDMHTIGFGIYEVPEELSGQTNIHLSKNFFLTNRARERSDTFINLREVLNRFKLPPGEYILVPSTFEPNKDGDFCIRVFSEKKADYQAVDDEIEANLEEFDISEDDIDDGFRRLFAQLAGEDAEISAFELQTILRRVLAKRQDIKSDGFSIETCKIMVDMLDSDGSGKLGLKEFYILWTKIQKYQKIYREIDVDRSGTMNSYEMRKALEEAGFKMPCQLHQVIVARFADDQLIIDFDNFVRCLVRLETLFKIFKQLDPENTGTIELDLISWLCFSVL
UniProt Q9H257: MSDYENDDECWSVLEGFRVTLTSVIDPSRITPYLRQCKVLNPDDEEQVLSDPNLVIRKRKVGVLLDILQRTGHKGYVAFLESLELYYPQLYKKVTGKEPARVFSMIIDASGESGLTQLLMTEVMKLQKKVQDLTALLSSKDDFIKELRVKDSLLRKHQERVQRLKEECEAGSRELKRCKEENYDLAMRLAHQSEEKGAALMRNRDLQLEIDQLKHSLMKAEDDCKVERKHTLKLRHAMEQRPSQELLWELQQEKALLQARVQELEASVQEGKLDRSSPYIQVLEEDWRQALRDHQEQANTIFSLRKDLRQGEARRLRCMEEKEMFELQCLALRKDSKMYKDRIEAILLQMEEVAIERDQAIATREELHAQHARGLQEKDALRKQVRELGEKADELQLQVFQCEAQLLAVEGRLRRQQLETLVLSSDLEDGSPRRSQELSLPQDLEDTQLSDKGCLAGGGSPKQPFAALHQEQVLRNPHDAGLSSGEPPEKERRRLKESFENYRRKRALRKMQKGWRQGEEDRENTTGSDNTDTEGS

Compound: Cc1cc(ccc1-c1ccccc1)C(=O)N1CCCN(CC1)C(=O)CCl [compound 10]
Assay: probe-labelled cysteine peptide fold change vs DMSO (competition) (log2 fold change); higher = less target engagement (more negative = stronger competition)
Settings: THP-1, incubation time: 4 h
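Further: competitive profiling in live THP-1 cells: cysteine peptides tagged with an iodoacetamide desthiobiotin (IA-DTB) probe, intensity after compound treatment relative to DMSO-treated cells.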

| Target | probe-labelled cysteine peptide fold change (10 µM) | probe-labelled cysteine peptide fold change (50 µM) |
| --- | --- | --- |
| CCAR2_Q8N163_644_PLSSGGEEEEKPRGEASEDLCEMALDPELLLLRDDGEEEFAGAK (UniProt Q8N163) | 0.363 | 0.167 |
| CAPN7_Q9Y6W3_242_FAYPMPFCDR (UniProt Q9Y6W3) | -0.0997 | -0.0155 |
| CASP4_P49662_217_SSDSTFLVLMSHGILEGICGTVHDEK (UniProt P49662) | 0.193 | 0.00467 |
| CBX8_Q9HC52_261_RQDSDLVQCGVTSPSSAEATGK (UniProt Q9HC52) | -0.211 | -0.0374 |
| CARS_P49589_27_RVQPQWSPPAGTQPCR (UniProt P49589) | -0.172 | -0.0916 |
| CAPZA1_P52907_141_DHYSNGFCTVYAK (UniProt P52907) | 0.236 | -0.0314 |
| CARS_P49589_525_ALVSQCNLYMAAR (UniProt P49589) | -0.00667 | -0.0417 |
| CASP8_Q14790_309_IYQLMDHSNMDCFICCILSHGDK (UniProt Q14790) | 0.0842 | -0.247 |
| CARM1_Q86X55_438_AGDTLSGTCLLIANK (UniProt Q86X55) | 0.0534 | 0.146 |
| CASP7_P55210_246_GSWFVQALCSILEEHGK (UniProt P55210) | 0.137 | 0.467 |
| CBX3_Q13185_177_LTWHSCPEDEAQ (UniProt Q13185) | -0.338 | -0.285 |
| CAPZB_P47756_62_DYLLCDYNR (UniProt P47756) | -0.223 | -0.0616 |
| CCDC88B_A6NC98_1228_LTTQCELLTQLR (UniProt A6NC98) | -0.202 | 0.324 |
| CAST_P20810_661_KPADDQDPIDALSGDLDSCPSTTETSQNTAK (UniProt P20810) | 0.116 | 0.0539 |
| CASP8_Q14790-2_188_GEELCGVMTISDSPR (UniProt Q14790) | -0.0348 | 0.0124 |
| CBR3_O75828_150_AFENCSEDLQER (UniProt O75828) | 0.369 | 0.0721 |
| CAPRIN1_Q14444_226_PVCGTTYK (UniProt Q14444) | 0.0847 | 0.148 |
| CAPN2_P17655_498_DGDFCIR (UniProt P17655) | 0.239 | 0.0316 |
| CARD9_Q9H257_178_CKEENYDLAMR (UniProt Q9H257) | 0.317 | -0.0989 |
| CCDC88A_Q3V6T2_524_QSLQNCQNLSK (UniProt Q3V6T2) | -0.00565 | -0.0713 |

An excerpt of these results, with bars between the fields.
Target | probe-labelled cysteine peptide fold change (10 µM) | probe-labelled cysteine peptide fold change (50 µM)
CCAR2_Q8N163_644_PLSSGGEEEEKPRGEASEDLCEMALDPELLLLRDDGEEEFAGAK (UniProt Q8N163) | 0.363 | 0.167
CBX3_Q13185_177_LTWHSCPEDEAQ (UniProt Q13185) | -0.338 | -0.285
CAST_P20810_661_KPADDQDPIDALSGDLDSCPSTTETSQNTAK (UniProt P20810) | 0.116 | 0.0539
CAPN2_P17655_498_DGDFCIR (UniProt P17655) | 0.239 | 0.0316
